The list does not hold the whole screen: it is rich in T/C values a quarter to a half above the control, in often repeated tests (any T/C) and in doses without a T/C. Further doses and runs are listed elsewhere. T/C gives the treated animals as a percentage of the vehicle group. Some entries give survivors of the animals treated and no T/C: the source files T/C as zero there, which appears to mark a toxic dose or a test without result, not a measured value. Some survivor counts are full or nearly so, which does not show that the dose was tolerated: the source hardly ever lists a survival T/C far under the control, and the zero likely stands for such cases as well. Survivors were counted at the toxicity check, usually on the fifth day, unless a day is given; later deaths do not show. Schedules are NCI's codes, read here as Q, the interval in days (D) or hours (H), X, the number of doses. Some entries hold several experiments; the results are listed from low to high. For survival time, this PubChem deposit counts one and a half times the control or more as active, and values a quarter to a half above the control carry no call in these data; other NCI protocols may use other cut-offs. Some T/C values carry the count of animals alive at the toxicity check (mostly the fifth day); without a count, all were alive then.
Test system: P388 leukemia ip, CD2F1 mice, survival T/C
Assay: NCI In Vivo Anticancer Drug Screen. Data for tumor model P388 Leukemia (intraperitoneal) in CD2F1 (CDF1) mice
Conditions: T/C endpoint: median survival time, higher T/C = longer survival
[1] = dose: 200.0 mg/kg/injection, schedule: Q01DX009 (ip), vehicle: Klucel (hydroxypropylcellulose) (HPC)
[2] = dose: 200.0 mg/kg/injection, schedule: Q01DX005 (ip), vehicle: saline with Tween-80

## COC1C(O)CC(OC2CC(OC3CC(O[C@@H]4C(=O)c5c(cc6cc(OC7CC(OC8CC(O)C(O)C(C)O8)C(O)C(C)O7)c(C)c(O)c6c5O)C[C@H]4[C@H](OC)C(=O)[C@@H](O)[C@@H](C)O)OC(C)C3O)OC(C)C2O)OC1C (some centres not stated)
dose: 375.0 micrograms/kg/injection, schedule: Q01DX009 (ip), vehicle: water
  T/C: 133 % of control
dose: 750.0 micrograms/kg/injection, schedule: Q01DX009 (ip), vehicle: saline
  T/C: 138 % of control
dose: 750.0 micrograms/kg/injection, schedule: Q01DX009 (ip), vehicle: water
  T/C: 135 % of control
dose: 1500.0 micrograms/kg/injection, schedule: Q01DX009 (ip), vehicle: water
  T/C: 144 % of control
dose: 3000.0 micrograms/kg/injection, schedule: Q01DX009 (ip), vehicle: saline
  survivor count: 6 of 6
dose: 3000.0 micrograms/kg/injection, schedule: Q01DX009 (ip), vehicle: water
  survivor count: 5 of 6

## CCOC(=O)Nc1nc2ccccc2n1CN1CCN(c2ccccc2)CC1
dose: 200.0 mg/kg/injection, schedule: Q01DX005 (ip), vehicle: Klucel (hydroxypropylcellulose) (HPC)
  survivor count: 5 of 6

## O=C1C=CC(=Nc2ccc(N(CCCl)CCCl)cc2)C=C1
[1]
  T/C: 133 % of control

## CN(C)CCCN1CCC2(CCC(C(C)(C)C)CC2)CC1
[2]
  survivor count: 0 of 6

## O=C(O)C(F)(F)F.O=C(O)C(F)(F)F.O=C(O)C(F)(F)F.O=C(O)C(F)(F)F.[Rh].[Rh]
dose: 12.5 mg/kg/injection, schedule: Q01DX009 (ip), vehicle: saline
  survivor count: 6 of 6
dose: 200.0 mg/kg/injection, schedule: Q01DX009 (ip), vehicle: suspension in saline
  survivor count: 3 of 6

## Cc1cc(Nc2ccc(N(CCCl)CCCl)cc2)c(C)cc1O
dose: 100.0 mg/kg/injection, schedule: Q04DX003 (ip), vehicle: Klucel (hydroxypropylcellulose) (HPC)
  T/C: 137 % of control [5 of 6 alive]
dose: 400.0 mg/kg/injection, schedule: Q04DX003 (ip), vehicle: Klucel (hydroxypropylcellulose) (HPC)
  survivor count: 4 of 6

## Cc1cc2c(C(C)C)c(O)c(O)c(C=NC3CCCCC3)c2c(O)c1-c1c(C)cc2c(C(C)C)c(O)c(O)c(C=NC3CCCCC3)c2c1O
dose: 50.0 mg/kg/injection, schedule: Q01DX005 (ip), vehicle: saline with Tween-80
  survivor count: 5 of 5
dose: 100.0 mg/kg/injection, schedule: Q01DX005 (ip), vehicle: saline with Tween-80
  survivor count: 5 of 5
[2]
  survivor count: 5 of 5

## O=C(NC(Cc1ccc(I)cc1)C(=O)O)c1ccc(Br)cc1 (configuration not stated)
dose: 200.0 mg/kg/injection, schedule: Q01DX005 (ip), vehicle: sodium bicarbonate
  survivor count: 0 of 6
dose: 400.0 mg/kg/injection, schedule: Q01DX005 (ip), vehicle: sodium bicarbonate
  survivor count: 0 of 6
dose: 800.0 mg/kg/injection, schedule: Q01DX005 (ip), vehicle: sodium bicarbonate
  survivor count: 1 of 6

## CC(C)=CCC/C(C)=C/CC1=CC(=O)C=CC1=O
[1]
  survivor count: 0 of 6

## COC(=O)C1=[N+]([O-])[N+]([O-])=C(C(=O)OC)C1=O
dose: 50.0 mg/kg/injection, schedule: Q01DX009 (ip), vehicle: Klucel (hydroxypropylcellulose) (HPC)
  survivor count: 2 of 6

## O=S(=O)(O)c1ccccc1N=Nc1ccc(N(CCCl)CCCl)cc1
dose: 15.0 mg/kg/injection, schedule: Q01DX009 (ip), vehicle: saline with Tween-80
  T/C: 130 % of control
dose: 30.0 mg/kg/injection, schedule: Q01DX009 (ip), vehicle: saline with Tween-80
  T/C: 138 % of control
dose: 50.0 mg/kg/injection, schedule: Q01DX009 (ip), vehicle: saline with Tween-80
  T/C: 137 % of control
dose: 60.0 mg/kg/injection, schedule: Q01DX009 (ip), vehicle: saline with Tween-80
  T/C: 142 % of control
dose: 200.0 mg/kg/injection, schedule: Q01DX009 (ip), vehicle: saline with Tween-80
  survivor count: 5 of 6

## CCOc1cc2c(cc1C(C)c1ccc(OC)cc1)OCO2 (configuration not stated)
dose: 100.0 mg/kg/injection, schedule: Q01DX005 (ip), vehicle: distilled water + alcohol
  T/C: 125 % of control
dose: 200.0 mg/kg/injection, schedule: Q01DX005 (ip), vehicle: distilled water + alcohol
  survivor count: 3 of 5

## O=NNc1ccncc1
dose: 25.0 mg/kg/injection, schedule: Q01DX005 (ip), vehicle: saline
  T/C: 129 % of control
dose: 50.0 mg/kg/injection, schedule: Q01DX005 (ip), vehicle: saline
  survivor count: 2 of 6 and 2 of 5
dose: 100.0 mg/kg/injection, schedule: Q01DX005 (ip), vehicle: saline
  survivor count: 0 of 5
dose: 200.0 mg/kg/injection, schedule: Q01DX005 (ip), vehicle: saline
  survivor count: 0 of 5

— PubChem BioAssay AID330 (DTP/NCI, 2004)
